Test results: publication PMC3871109
For at least one entry, the source does not settle the construct or the ends of the probe. Results from cells or extracts need not show a direct contact. A negative result means that nothing was seen under these conditions.

Protein sequences, listed by entry. Tags and fused reporters are not part of them. Residues count along the entry.
UniProt P28908, 19-595: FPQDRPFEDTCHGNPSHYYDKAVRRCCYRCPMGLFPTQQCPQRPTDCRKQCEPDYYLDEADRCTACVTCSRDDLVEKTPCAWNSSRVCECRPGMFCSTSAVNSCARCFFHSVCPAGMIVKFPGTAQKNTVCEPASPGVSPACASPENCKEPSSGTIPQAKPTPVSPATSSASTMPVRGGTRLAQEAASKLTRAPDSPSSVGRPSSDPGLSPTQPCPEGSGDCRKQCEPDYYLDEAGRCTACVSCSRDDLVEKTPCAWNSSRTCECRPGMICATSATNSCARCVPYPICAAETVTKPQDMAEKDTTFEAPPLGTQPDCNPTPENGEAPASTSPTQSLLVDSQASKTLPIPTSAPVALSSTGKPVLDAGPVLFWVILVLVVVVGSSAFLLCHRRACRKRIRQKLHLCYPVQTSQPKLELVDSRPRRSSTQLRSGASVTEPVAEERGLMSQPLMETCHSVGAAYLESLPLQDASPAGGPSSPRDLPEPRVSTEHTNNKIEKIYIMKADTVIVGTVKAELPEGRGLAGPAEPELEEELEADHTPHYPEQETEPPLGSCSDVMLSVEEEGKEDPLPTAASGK

Target: CD30 (UniProt P28908)
Assay: competition (flow cytometry, HDLM2 cells)
Settings: no competition with 10x unlabeled CD30 aptamer C2NP or with CD30 antibody, no binding to CD30+ K562 and H9 cells; Dulbecco's PBS with 4.5 g/L glucose, 5 mM MgCl2, 1 mg/mL BSA, 0.1 mg/mL tRNA; 1 h, room temperature; pH not stated; protein on the cell surface; label: 5' Cy3 (unlabeled in antibody competition); single-stranded DNA

| Sequence | binding result |
| --- | --- |
| TAACTTTGAAGGAAAGGCTACAAACTCTTC [PS1NP] | no binding |
| TACCAGTGCGATGCTCAGTAACTTTGAAGGAAAGGCTACAAACTCTTCCTGACGCATTCGGTTGAC [PS1] | no binding |
